Experimental data taken from the supplement of paper PMC3353916.

Test system: Sindbis virus TE/5'2J-GFP
Experiment: percent infected (GFP+ in RFP+ ISG-expressing cells); higher = more infection (less antiviral activity)
Details: experiment: primary screen (single well)

Sequence | percent infected (BHK/HA-Zeo (control)) [%] | percent infected (BHK/NZAP-Zeo (ZAP)) [%]
MGLQLRALLGAFGRWTLRLGPRPSCSPRMAGNAEPPPAGAACPQDRRSCSGRAGGDRVWEDGEHPAKKLKSGGDEERREKPPKRKIVLLMAYSGKGYHGMQRNVGSSQFKTIEDDLVSALVRSGCIPENHGEDMRKMSFQRCARTDKGVSAAGQVVSLKVWLIDDILEKINSHLPSHIRILGLKRVTGGFNSKNRCDARTYCYLLPTFAFAHKDRDVQDETYRLSAETLQQVNRLLACYKGTHNFHNFTSQKGPQDPSACRYILEMYCEEPFVREGLEFAVIRVKGQSFMMHQIRKMVGLVVAIVKGYAPESVLERSWGTEKVDVPKAPGLGLVLERVHFEKYNQRFGNDGLHEPLDWAQEEGKVAAFKEEHIYPTIIGTERDERSMAQWLSTLPIHNFSATALTAGGTGAKVPSPLEGSEGDGDTD [PUS1] | 97.8 | 96.3
MGMACLTMTEMEGTSTSSIYQNGDISGNANSMKQIDPVLQVYLYHSLGKSEADYLTFPSGEYVAEEICIAASKACGITPVYHNMFALMSETERIWYPPNHVFHIDESTRHNVLYRIRFYFPRWYCSGSNRAYRHGISRGAEAPLLDDFVMSYLFAQWRHDFVHGWIKVPVTHETQEECLGMAVLDMMRIAKENDQTPLAIYNSISYKTFLPKCIRAKIQDYHILTRKRIRYRFRRFIQQFSQCKATARNLKLKYLINLETLQSAFYTEKFEVKEPGSGPSGEEIFATIIITGNGGIQWSRGKHKESETLTEQDLQLYCDFPNIIDVSIKQANQEGSNESRVVTIHKQDGKNLEIELSSLREALSFVSLIDGYYRLTADAHHYLCKEVAPPAVLENIQSNCHGPISMDFAISKLKKAGNQTGLYVLRCSPKDFNKYFLTFAVERENVIEYKHCLITKNENEEYNLSGTKKNFSSLKDLLNCYQMETVRSDNIIFQFTKCCPPKPKDKSNLLVFRTNGVSDVPTSPTLQRPTHMNQMVFHKIRNEDLIFNESLGQGTFTKIFKGVRREVGDYGQLHETEVLLKVLDKAHRNYSESFFEAASMMSKLSHKHLVLNYGVCVCGDENILVQEFVKFGSLDTYLKKNKNCINILWKLEVAKQLAWAMHFLEENTLIHGNVCAKNILLIREEDRKTGNPPFIKLSDPGISITVLPKDILQERIPWVPPECIENPKNLNLATDKWSFGTTLWEICSGGDKPLSALDSQRKLQFYEDRHQLPAPKWAELANLINNCMDYEPDFRPSFRAIIRDLNSLFTPDYELLTENDMLPNMRIGALGFSGAFEDRDPTQFEERHLKFLQQLGKGNFGSVEMCRYDPLQDNTGEVVAVKKLQHSTEEHLRDFEREIEILKSLQHDNIVKYKGVCYSAGRRNLKLIMEYLPYGSLRDYLQKHKERIDHIKLLQYTSQICKGMEYLGTKRYIHRDLATRNILVENENRVKIGDFGLTKVLPQDKEYYKVKEPGESPIFWYAPESLTESKFSVASDVWSFGVVLYELFTYIEKSKSPPAEFMRMIGNDKQGQMIVFHLIELLKNNGRLPRPDGCPDEIYMIMTECWNNNVNQRPSFRDLALRVDQIRDNMAG [JAK2] | 98.5 | 98.1
MGNGESQLSSVPAQKLGWFIQEYLKPYEECQTLIDEMVNTICDVLQEPEQFPLVQGVAIGGSYGRKTVLRGNSDGTLVLFFSDLKQFQDQKRSQRDILDKTGDKLKFCLFTKWLKNNFEIQKSLDGFTIQVFTKNQRISFEVLAAFNALSLNDNPSPWIYRELKRSLDKTNASPGEFAVCFTELQQKFFDNRPGKLKDLILLIKHWHQQCQKKIKDLPSLSPYALELLTVYAWEQGCRKDNFDIAEGVRTVLELIKCQEKLCIYWMVNYNFEDETIRNILLHQLQSARPVILDPVDPTNNVSGDKICWQWLKKEAQTWLTSPNLDNELPAPSWNVLPAPLFTTPGHLLDKFIKEFLQPNKCFLEQIDSAVNIIRTFLKENCFRQSTAKIQIVRGGSTAKGTALKTGSDADLVVFHNSLKSYTSQKNERHKIVKEIHEQLKAFWREKEEELEVSFEPPKWKAPRVLSFSLKSKVLNESVSFDVLPAFNALGQLSSGSTPSPEVYAGLIDLYKSSDLPGGEFSTCFTVLQRNFIRSRPTKLKDLIRLVKHWYKECERKLKPKGSLPPKYALELLTIYAWEQGSGVPDFDTAEGFRTVLELVTQYQQLCIFWKVNYNFEDETVRKFLLSQLQKTRPVILDPAEPTGDVGGGDRWCWHLLAKEAKEWLSSPCFKDGTGNPIPPWKVPTMQTPGSCGARIHPIVNEMFSSRSHRILNNNSKRNF [OAS2] | 98.1 | 92
MGQKVTGGIKTVDMRDPTYRPLKQELQGLDYCKPTRLDLLLDMPPVSYDVQLLHSWNNNDRSLNVFVKEDDKLIFHRHPVAQSTDAIRGKVGYTRGLHVWQITWAMRQRGTHAVVGVATADAPLHSVGYTTLVGNNHESWGWDLGRNRLYHDGKNQPSKTYPAFLEPDETFIVPDSFLVALDMDDGTLSFIVDGQYMGVAFRGLKGKKLYPVVSAVWGHCEIRMRYLNGLDPEPLPLMDLCRRSVRLALGRERLGEIHTLPLPASLKAYLLYQ [SPSB1] | 98 | 91.8

This is a noisy data set.
